Measured values: publication PMC7375649, “Varicella zoster virus encodes a viral decoy RHIM to inhibit cell death” (PLoS Pathogens, 2020)

Protein sequences, listed by entry. Tags and fused reporters are not part of them. Lines headed by an entry give the natural chain unless they say otherwise; changes in a name come on top. Residues count along the entry.
UniProt Q13546: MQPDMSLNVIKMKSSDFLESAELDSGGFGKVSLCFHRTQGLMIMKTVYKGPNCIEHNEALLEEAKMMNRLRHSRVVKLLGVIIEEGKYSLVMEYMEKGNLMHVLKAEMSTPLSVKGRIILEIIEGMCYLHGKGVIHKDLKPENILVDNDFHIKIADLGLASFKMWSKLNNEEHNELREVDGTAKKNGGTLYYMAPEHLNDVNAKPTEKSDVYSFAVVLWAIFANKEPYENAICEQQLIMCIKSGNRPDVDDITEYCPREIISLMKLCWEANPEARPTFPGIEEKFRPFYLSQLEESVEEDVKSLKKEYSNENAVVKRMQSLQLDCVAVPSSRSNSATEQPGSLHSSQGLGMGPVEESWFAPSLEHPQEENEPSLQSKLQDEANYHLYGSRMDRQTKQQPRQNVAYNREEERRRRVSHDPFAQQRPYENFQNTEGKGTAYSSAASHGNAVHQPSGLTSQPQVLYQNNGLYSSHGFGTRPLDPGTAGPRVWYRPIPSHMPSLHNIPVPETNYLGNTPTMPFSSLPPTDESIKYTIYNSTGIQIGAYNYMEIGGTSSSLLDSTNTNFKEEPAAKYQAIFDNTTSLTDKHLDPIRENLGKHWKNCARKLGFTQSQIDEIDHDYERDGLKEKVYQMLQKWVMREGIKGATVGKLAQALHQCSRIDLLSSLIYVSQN
YPet-RIPK1_(497-583): residues 497-583 of Q13546
UniProt Q9Y572, residues 387-518: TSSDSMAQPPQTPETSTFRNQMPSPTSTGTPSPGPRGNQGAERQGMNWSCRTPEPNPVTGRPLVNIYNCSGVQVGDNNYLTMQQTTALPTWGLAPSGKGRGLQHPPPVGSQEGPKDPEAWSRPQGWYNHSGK
UniProt P09276: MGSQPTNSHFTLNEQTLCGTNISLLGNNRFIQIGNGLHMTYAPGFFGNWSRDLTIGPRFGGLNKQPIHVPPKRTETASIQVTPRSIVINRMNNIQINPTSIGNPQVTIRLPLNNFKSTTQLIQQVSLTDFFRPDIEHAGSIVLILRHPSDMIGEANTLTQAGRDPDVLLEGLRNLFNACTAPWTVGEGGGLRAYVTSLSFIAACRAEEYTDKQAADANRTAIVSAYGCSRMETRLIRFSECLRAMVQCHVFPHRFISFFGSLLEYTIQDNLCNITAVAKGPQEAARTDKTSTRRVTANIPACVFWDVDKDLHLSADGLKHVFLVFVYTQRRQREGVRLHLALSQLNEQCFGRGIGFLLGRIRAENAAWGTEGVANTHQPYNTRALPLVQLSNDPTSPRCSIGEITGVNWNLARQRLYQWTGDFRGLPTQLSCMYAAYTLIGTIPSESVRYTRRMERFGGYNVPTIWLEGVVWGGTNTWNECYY

Columns and labels:
[1] = target: T1, YPet-ZBP1_(170-355) (human) (UniProt Q9H171); assay: confocal microscopy of fibrils formed from purified proteins; proteins mixed and dialysed at 5 uM from 8 M urea into 25 mM NaH2PO4, 150 mM NaCl, 0.5 mM DTT, pH 7.4, with ThT; YPet, mCherry and ThT fluorescence imaged; both purified
T1 sequence: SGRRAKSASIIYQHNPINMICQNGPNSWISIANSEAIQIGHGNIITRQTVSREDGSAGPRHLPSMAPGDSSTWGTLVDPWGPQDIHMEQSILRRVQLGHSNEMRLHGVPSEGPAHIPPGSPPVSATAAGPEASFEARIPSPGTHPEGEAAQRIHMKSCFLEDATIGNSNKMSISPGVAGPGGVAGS

[2] = target: YPet-RIPK1_(497-583) (human) (UniProt Q13546); assay: single molecule fluorescence confocal spectroscopy (two-colour coincidence); proteins alone or one mCherry-tagged and one YPet-tagged protein mixed, diluted out of 8 M urea to 0.35-0.7 uM in 25 mM NaH2PO4, 150 mM NaCl, 0.5 mM DTT, pH 7.4; room temperature; 488 and 561 nm lasers; both …
[3] = target: YPet-RIPK3_(387-518) (human) (UniProt Q9Y572); assay: as above
[4] = target: T1, YPet-ZBP1_(170-355) (human); assay: as above
[5] = target: YPet-ZBP1_(170-355)mutA (human) (UniProt Q9H171); assay: as above
[6] = target: YPet-ZBP1_(170-355)mutB (human) (UniProt Q9H171); assay: as above
[7] = target: T1, YPet-ZBP1_(170-355) (human); assay: transmission electron microscopy; protein solutions at 5 uM, alone or in mixtures, on carbon/formvar grids, stained with 2% uranyl acetate; both purified
[8] = target: T1, YPet-ZBP1_(170-355) (human); assay: sodium dodecyl sulfate agarose gel electrophoresis (SDS-AGE); as a8, but assembled samples incubated with 2% SDS at room temperature for 10 min before electrophoresis; both purified
[9] = target: T1, YPet-ZBP1_(170-355) (human); assay: sodium dodecyl sulfate agarose gel electrophoresis (SDS-AGE); 5 uM per protein, alone or combined, dialysed from 8 M urea against assembly buffer overnight; incubated with water for 10 min before electrophoresis; monomer controls kept in 8 M urea; fluorescence imaging; both purified
[10] = target: RIPK1 (co-immunoprecipitation) (human) (UniProt Q13546); assay: co-IP; ORF20 and RIPK1 'by this method' (co-transfected 293T cells, immunoprecipitation); no figure shown
[11] = target: ZBP1-GFP (human) (UniProt Q9H171); assay: co-IP; 293T cells co-transfected; insoluble fraction (pellet resuspended in 8 M urea, 20 mM Tris pH 8.0, overnight at 4 C); GFP-TrapA with the GFP-tagged protein as bait; Western blot
[12] = target: ZBP1-GFP (human) (UniProt Q9H171); assay: co-IP; 293T cells co-transfected; soluble fraction (supernatant of DISC lysis buffer lysate: 1% Triton X-100, 10% glycerol, 150 mM NaCl, 2 mM EDTA, 30 mM Tris pH 7.5; 16,000 x g, 4 C); GFP-TrapA with the GFP-tagged protein as bait; Western blot

“ORF20_(1-114)-mCherry (from UniProt P09276) (domain or fragment)” was tested, and the binding [1] was “binds”, the binding [2] was “no binding (tested: 0.35-0.7 uM)” and the binding [3] was “binds”. For the same substance, the binding [4] was “binds”, the binding [5] was “binds weakly” and the binding [6] was “binds”.

“Ub-ORF20_(1-114) (from UniProt P09276) (domain or fragment)” was tested, and the binding [7] was “binds”, the binding [8] was “binds” and the binding [9] was “binds”.

“V5-tagged ORF20 (VZV capsid triplex subunit 1) (from UniProt P09276)” was tested, and the binding [10] was “no binding”, the binding [11] was “binds” and the binding [12] was “binds”.

No constants are given. Whether binding was seen depends on the method and setting. For part of these data: Binding calls can cover weak binding; strength is not graded here. For part of these data: Binding seen in cells or lysates may run through a third protein.
